Source: PMC13589956, “Engineered flavonoid disrupts mitochondrial AIF/CHCHD4 complex for targeted cancer therapy” (Acta Pharmaceutica Sinica. B, 2026)
These are yes or no findings as the source states them, for the method shown. In cells and extracts the contact can be indirect. Some results given as binding are weak or reduced against the parent protein; the word gives no strength.

Chains of the proteins cited; added tags and fusions are not shown. Residues count along the entry.
UniProt O95831, residues 102-613: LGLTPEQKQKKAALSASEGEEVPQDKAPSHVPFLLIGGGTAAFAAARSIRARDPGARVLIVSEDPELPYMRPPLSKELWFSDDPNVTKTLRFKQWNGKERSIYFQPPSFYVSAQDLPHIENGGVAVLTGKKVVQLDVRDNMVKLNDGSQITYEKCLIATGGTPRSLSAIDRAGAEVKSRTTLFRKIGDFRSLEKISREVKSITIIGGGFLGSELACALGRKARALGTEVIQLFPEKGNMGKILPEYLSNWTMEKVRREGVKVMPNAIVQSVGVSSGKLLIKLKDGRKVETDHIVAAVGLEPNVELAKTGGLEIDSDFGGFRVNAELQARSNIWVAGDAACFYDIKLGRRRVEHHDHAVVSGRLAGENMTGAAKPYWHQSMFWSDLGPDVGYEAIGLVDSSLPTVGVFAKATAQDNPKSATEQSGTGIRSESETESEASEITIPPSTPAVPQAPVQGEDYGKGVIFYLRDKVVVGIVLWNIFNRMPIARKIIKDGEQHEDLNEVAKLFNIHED

Target: T1, coiled-coil-helix-coiled-coil-helix domain-containing protein 4 (CHCHD4), endogenous in HOS cells (human (endogenous in HOS)) (UniProt Q8N4Q1)
T1 sequence: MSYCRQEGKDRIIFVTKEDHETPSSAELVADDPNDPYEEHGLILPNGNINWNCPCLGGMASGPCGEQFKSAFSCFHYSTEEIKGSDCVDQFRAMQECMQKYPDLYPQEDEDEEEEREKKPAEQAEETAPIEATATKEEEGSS
Test: co-IP; anti-CHCHD4 antibody on Dynabeads M-280, HOS cell lysate in 1% NP-40 buffer (50 mmol/L Tris pH 8.0, 150 mmol/L NaCl), overnight at 4 °C; blot for AIF and CHCHD4; cells treated with 0.002% DMSO or 8.3 μmol/L M30-E05 for 1, 2, 4, 6 h

binding: binds
Substance: apoptosis-inducing factor (AIF), endogenous in HOS cells (from UniProt O95831 102-613)
